Measured values taken from publication PMC11091212.
These are yes or no findings as the source states them, for the method shown.

Key:
MFAP4_(C34S) (human) [1] = biological target: MFAP4_(C34S) (human) (UniProt P55083); assay: SDS-PAGE; non-reducing, 10% gel, Coomassie stain; disulphide-linked dimer; both purified
MFAP4_(C34S) (human) [2] = biological target: MFAP4_(C34S) (human) (UniProt P55083); assay: SPR; self-interaction without Ca2+: immobilised and soluble protein treated with 5 mM EDTA or EGTA and dialysed against TBS; running buffer TBS; analyte 5-100 µg/mL; both purified
MFAP4_(C34S) (human) [3] = biological target: MFAP4_(C34S) (human) (UniProt P55083); assay: dynamic light scattering; denaturing: 1% SDS in TBS, without DTT; both purified
MFAP4_(C34S) (human) [4] = biological target: MFAP4_(C34S) (human) (UniProt P55083); assay: condition: only SDS gel under reducing conditions (50 mM DTT); SDS-PAGE; reducing (50 mM DTT), 10% gel, Coomassie stain; both purified
MFAP4_(C34S) (human) [5] = biological target: MFAP4_(C34S) (human) (UniProt P55083); assay: dynamic light scattering; denaturing and reducing: 1% SDS in TBS with 50 mM DTT; both purified

B1: MFAP4_(C34S) (protein, UniProt P55083 22-255)
chain: VSGIRGDALERFSLQQPLDCDDIYAQGYQSDGVYLIYPSGPSVPVPVFCDMTTEGGKWTVFQKRFNGSVSFFRGWNDYKLGFGRADGEYWLGLQNMHLLTLKQKYELRVDLEDFENNTAYAKYADFSISPNAVSAEEDGYTLFVAGFEDGGAGDSLSYHSGQKFSTFDRDQDLFVQNCAALSSGAFWFRSCHFANLNGFYLGGSHLSYANGINWAQWKGFYYSLKRTEMKIRRA
For B1, which binding (MFAP4_(C34S) (human) [1]) is on record?
Its binding is “no binding (condition: SDS gel, non-reducing)”.

And the binding (MFAP4_(C34S) (human) [2])?
The binding was “no binding (condition: Ca2+-depleted form)”.

And the binding (MFAP4_(C34S) (human) [3])?
Its binding is “no binding (condition: with 1% SDS)”.

What about the binding (MFAP4_(C34S) (human) [4]) of the same binder?
The binding was “no binding”.

And the binding (MFAP4_(C34S) (human) [5])?
Its binding is “no binding (condition: with 50 mM DTT and 1% SDS)”.
